Percent effect of library compounds

Protein sequences, listed by entry. Tags and fused reporters are not part of them. Residues count along the entry.
UniProt P9WPC5, whole entry: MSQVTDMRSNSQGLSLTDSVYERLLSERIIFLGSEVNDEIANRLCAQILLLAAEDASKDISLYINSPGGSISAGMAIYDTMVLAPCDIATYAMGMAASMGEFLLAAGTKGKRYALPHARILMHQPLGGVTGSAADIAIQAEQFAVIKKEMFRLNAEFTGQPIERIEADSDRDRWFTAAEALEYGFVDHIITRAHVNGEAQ
UniProt P9WPC3, whole entry partner: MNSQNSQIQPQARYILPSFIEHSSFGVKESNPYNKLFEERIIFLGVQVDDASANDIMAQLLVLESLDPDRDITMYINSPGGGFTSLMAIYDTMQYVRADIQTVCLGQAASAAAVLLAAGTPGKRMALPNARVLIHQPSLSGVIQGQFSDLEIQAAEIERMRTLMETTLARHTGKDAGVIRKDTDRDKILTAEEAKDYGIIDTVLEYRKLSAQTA
UniProt Q4DA54, 1-478: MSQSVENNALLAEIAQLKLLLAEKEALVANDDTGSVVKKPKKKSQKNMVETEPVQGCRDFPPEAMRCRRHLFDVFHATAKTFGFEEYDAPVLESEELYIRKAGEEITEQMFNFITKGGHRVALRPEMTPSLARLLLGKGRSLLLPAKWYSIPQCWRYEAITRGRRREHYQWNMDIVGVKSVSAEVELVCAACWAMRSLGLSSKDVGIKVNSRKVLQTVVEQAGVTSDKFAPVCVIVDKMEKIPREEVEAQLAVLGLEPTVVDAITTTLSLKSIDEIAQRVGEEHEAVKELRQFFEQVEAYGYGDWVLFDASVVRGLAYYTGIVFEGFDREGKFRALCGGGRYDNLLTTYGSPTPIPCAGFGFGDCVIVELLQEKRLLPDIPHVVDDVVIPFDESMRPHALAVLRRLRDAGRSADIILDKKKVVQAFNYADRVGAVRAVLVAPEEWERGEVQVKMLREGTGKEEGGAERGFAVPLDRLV
UniProt P9WNZ1, whole entry: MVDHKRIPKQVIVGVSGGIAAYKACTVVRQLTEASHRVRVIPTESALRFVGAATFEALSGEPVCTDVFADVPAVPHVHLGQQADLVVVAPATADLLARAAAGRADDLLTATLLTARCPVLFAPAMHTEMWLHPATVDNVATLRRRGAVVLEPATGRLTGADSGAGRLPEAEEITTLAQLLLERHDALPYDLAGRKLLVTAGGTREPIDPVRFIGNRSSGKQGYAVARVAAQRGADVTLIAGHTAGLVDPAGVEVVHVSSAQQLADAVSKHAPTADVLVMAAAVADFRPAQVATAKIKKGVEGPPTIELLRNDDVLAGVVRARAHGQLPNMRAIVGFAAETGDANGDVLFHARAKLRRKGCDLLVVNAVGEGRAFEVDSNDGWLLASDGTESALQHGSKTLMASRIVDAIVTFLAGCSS

Data taken from ChEMBL document CHEMBL3988442, “University of Dundee, Small-Polar-MMV Screening Library” (2021).

A: 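ClpP1P2, Mycobacterium tuberculosis (UniProt P9WPC5 and UniProt P9WPC3). Protease assay of ClpP1P2, read by the AMC dye that it sets free. Tested at 50 µM. Higher reads as stronger inhibition, judged from the few compounds that gave an IC50. Most other retested compounds had strongly negative values. Size under these conditions: about 69,000 compounds, about 10 of them at 50% or above in at least one test.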
B: 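Assay of Toxoplasma gondii numbers, read through their beta-galactosidase reporter with a colour substrate. Tested at 10 µM. Higher reads as fewer parasites (inferred from which compounds were picked for retests). Size under these conditions: about 67,000 compounds, about 260 of them at 50% or above in at least one test.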
C: 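Cell assay of Leishmania donovani living inside macrophages; the read-out is not stated. Concentration: 30 µM. The record gives no direction; compounds that gave an IC50 in retests scored well above the rest, so higher reads as stronger inhibition. Size under these conditions: about 69,000 compounds, about 1,000 of them at 50% or above in at least one test.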
D: 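Histidine-tRNA ligase, Trypanosoma cruzi CL Brener (UniProt Q4DA54). Enzyme assay of histidyl-tRNA synthetase; the read-out is not stated. Compounds at 30 µM. The record gives no direction; compounds that gave an IC50 in retests scored well above the rest, so higher reads as stronger inhibition. Of about 69,000 compounds tested this way, about 31 (0.045%) reached 50% or more in at least one test.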
E: 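Coenzyme A biosynthesis protein CoaBC, Mycobacterium tuberculosis (UniProt P9WNZ1). Enzyme assay of CoaBC with a phosphate dye (Biomol Green) read at 650 nm. Compounds at 30 µM. Higher reads as stronger inhibition, judged from the few compounds that gave an IC50. Most strong results did not repeat in a second test. Size under these conditions: about 67,000 compounds, about 40 of them at 50% or above in at least one test.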

Results are given as percent effect.
The controls that fix the scale are not given in the record; negative values are as filed.
Compounds were drawn at random from those tested, without regard to their results.
Two or more numbers in one place are separate tests of the same structure; such repeats can differ widely.
A dash means the value is not listed here; it may have been measured.

structure | A | B | C | D | E
N[C@H]1CN(C(=O)c2ccc3[nH]c(CO)nc3c2)C[C@@H]1c1ccccc1 | 9.618 | 33.44 | -45.87 | 6.468 | 0.3764
O=C(O)C(F)(F)F.O=C(O)C(F)(F)F.[H][C@@]12CCN(c3ncccn3)[C@]1([H])CC[C@@H](C(=O)NCc1cccnc1)O2 | - | -3.744 | 42.67 | - | -
CCN(CC1CCOCC1)C(=O)Cn1cccc(C(F)(F)F)c1=O | -4.326 | -6.036 | 9.055 | 1.676 | 6.855
COCC(=O)NCc1cc(=O)n2c(n1)CN(Cc1ccsc1)CCC2 | 3.857 | 0.1614 | 13.56 | -1.657 | 5.141
CN1CCOC(CNC(=O)C2(c3cccc(Cl)c3)CC2)C1 (stereo not shown) | -18.21 | -16.76 | -39.94 | 2.632 | -5.855
O=C(O)C(F)(F)F.O=C1COC2(CCN(Cc3ccoc3)CC2)CN1CCn1cccn1 | - | -8.615 | 24.41 | - | -
CC(C)OCCCNC(=O)CSc1nnc(OC(C)C)s1 | 2.867 | 1.193 | 1.781 | 7.937 | -10.95
Cc1cc(C(=O)N2CCn3c(COCC4CCCC4)cnc3C2C)on1 (stereo not shown) | -1.032 | 1.249 | 6.656 | 5.785 | 4.202
[H][C@]12CC[C@]([H])(CN(Cc3ccc(F)cc3)C1)N(Cc1snnc1C)C2 | - | 4.334 | -23.41 | - | -
CCN(CC)CCNc1ncc(-c2cc(C)no2)c(-c2ccoc2C)n1 | 5.792 | 16.08 | 17.87 | 0.5405 | 2.222
O=C(c1ccco1)N1CCC2(CCOC2)C1 (stereo not shown) | 11.91 | -0.2391 | 17.06 | -2.732 | 4.441
CCc1cnc(CN(C)C2CCN(CCc3ccccn3)C2)o1 (stereo not shown) | 0.8804 | 0.9305 | 19.51 | 8.13 | 4.641
CCS(=O)(=O)N1CCC2(CC1)CN(c1cccnc1)C(=O)CO2.O=C(O)C(F)(F)F | - | -35.87 | 49.66 | - | -
CS(=O)(=O)N1CCCC12CCCN(S(=O)(=O)c1ccc(F)cc1)C2 (stereo not shown) | 19.1 | 0.4785 | 11.6 | 8.475 | -3.524
O=C(O)C(F)(F)F.[H][C@@]12CCN(Cc3c(C)noc3C)C[C@]1(C(=O)N1CCOCC1)CCO2 | - | 4.882 | 8.294 | - | -
CC(C)c1cc(C(=O)N2Cc3ccccc3CC2C(=O)O)nn1C (stereo not shown) | -6.512 | -0.8115 | 9.995 | 4.813 | 0
CC(C)C1CN(C(=O)c2cn3ccccc3n2)CCCN1CC1CC1 (stereo not shown) | -19.19 | 5.991 | 13.61 | -8.772 | 3.822
COCCN1CCc2cc(C(=O)O)c(NCC3CC3)nc2CC1 | 5.512 | - | - | 5.607 | -0.9877
Cc1noc([C@@H]2C[C@H](NC(=O)C3CCCCC3)CN2C)n1 | -1.675 | -4.101 | -9.017 | 4.348 | 8.168
O=C(CC1CC1)N1C[C@@H]2CCN(c3cccnc3)C[C@@H]2C1 | -5.96 | - | - | 5.288 | 5.882
Cc1nc(CN2C[C@@H]3CN(C(=O)c4ccoc4C)C[C@@H]3C2)cs1 | 11.4 | - | - | 9.045 | 3.069
Cc1c(-c2ccncc2)n[nH]c1NC(=O)CCOC(C)C | 2.135 | 5.369 | 16.22 | 3.03 | -0.3241
c1ccc(Oc2ccc(OC34CCCN(CC3)C4)cc2)cc1 (stereo not shown) | -30.71 | 30.98 | 89.06 | 16.41 | 0.4592
O=C1NCCc2c1sc1ccc(C(=O)N3CC[C@H](CO)[C@H](O)C3)cc21 | -2.219 | -20.11 | 17.25 | 5.528 | -4.704
Cc1c(NC(=O)C(C)N(C)C)c(=O)n(-c2ccccc2)n1C (stereo not shown) | 4.388 | 24.76 | -0.3984 | 7.955 | 3.155
CCC1(CO)CCN(C(=O)c2cc(COc3ccccc3F)[nH]n2)CC1 | 25.34 | -0.1815 | -10.91 | 11.11 | -2.357
Cc1csc(N2CCN(Cc3ccccn3)CC2)n1 | 17.58 | -6.876 | 42.75 | 13.07 | 1.942
CN1CCOC(CNC(=O)COc2ccc(F)cc2F)C1 (stereo not shown) | -4.593 | 10.56 | 14.41 | 7.331 | 2.632
CCOc1cc(/C=C/c2ncc(C(=O)O)s2)cc(Br)c1O | 6.455 | -15.75 | 21.1 | 4.871 | 22.16 & 32.67
Cc1nccn1CCCn1cncc1-c1ccc2c(c1)CCCN2C | -18.32 | - | - | 11.71 | 0.9132
[H][C@@]12CN(Cc3cccc(F)c3)C[C@]1([H])N(CCCN1CCOCC1)C(=O)O2 | - | 0.2203 | 9.026 | - | -
COCCN1CCCC2(CCN(Cc3noc(C4CCCC4)n3)C2)C1=O (stereo not shown) | -2.573 | 7.887 | 21.81 | 6.704 | 0.7712
Cc1nn(CC(=O)Nc2ccc(F)cc2)c(N)c1C#N | -9.285 | -5.118 | -1.862 | 3.784 | 4.274
Cc1ccc(N2CCCC(NCc3ccc(-n4ccnc4)cc3)C2)nn1 (stereo not shown) | -0.4665 | 2.2 | -3.894 | 5.882 | -2.376
CC(C)Cc1cc(C(=O)O)nc2[nH]c(=O)[nH]c(=O)c12 | 0.2787 | -30.92 | -24.79 | 3.96 | 2.892
Cc1oc(-c2cccs2)nc1C(=O)N(C)C1(C#N)CCC1 | 13.36 | 2.265 | 20.54 | -0.6369 | -
Cc1ncc2c(c1CNC(=O)C1(C)CCCO1)CCNC2 (stereo not shown) | -4.319 | 8.394 | 15.21 | 0.5618 | -0.2012
COc1ccc(C)cc1NS(=O)(=O)c1ccc(CCNC(C)=O)s1 | 1.351 | 12.48 | 33.4 | 3.879 | 0.8872
Cc1cc(C)n(CC2CN(CCOc3cccc(C#N)c3)CCO2)n1 (stereo not shown) | -4.151 | -0.06277 | 21.87 | 3.03 | 6.845
Cc1oc(C)c(C(=O)NCc2cccnc2)c1C | -11.38 | -12 | 14.53 | 7.647 | 9.207
Cc1noc(C)c1CN(C)C(=O)NC1CCC(O)CC1 (stereo not shown) | -6.623 | -7.121 | 30.57 | 6.158 | 3.684
CN1CC2(CCCN(Cc3cccc(Oc4ccccc4)c3)C2)OC1=O (stereo not shown) | 21.13 | -6.897 | 7.43 | 10.1 | -4.714

Some entries from above, unchanged:

{"structure": "COCCN1CCCC2(CCN(Cc3noc(C4CCCC4)n3)C2)C1=O", "stereo": "stereo not shown", "A": -2.573, "B": 7.887, "C": 21.81, "D": 6.704, "E": 0.7712}
{"structure": "Cc1oc(-c2cccs2)nc1C(=O)N(C)C1(C#N)CCC1", "A": 13.36, "B": 2.265, "C": 20.54, "D": -0.6369}